According to patent publication US20060008512A1, “Composition and methods for improved animal performance” (priority 2004, published 2006):
Where two headings read alike, the source gives them in different places. Further values from the same series stand in other lists.

What was measured:
[1] = system: Hy-Line W-36 White Leghorn hens
Description: Experiment 2. […] The photoperiod was 17 hours of light per day (0330 hours to 2030 hours).
The objective was to use T4 to humanely induce molting in hens that are continuously provided with ad libitum access to palatable feed meeting or exceeding all National Research Council (1994) standards. Developing a fully efficacious yet affordable molting protocol was predicated on determining the minimum effective level for T4 supplementation. Factors that potentially may affect the required level of T4 supplementation include: (1) uncertainty regarding the efficiency of T4 absorption by the gastrointestinal tract, (2) the possibility that continuous dietary ingestion of T4 could trigger substantially different biological responses when compared single daily injections, and (3) the likelihood that daily T4 intake would diminish in parallel with molt-related reductions in feed intake associated with cessation in egg production. A spontaneous and voluntary loss of appetite (anorexia) commonly accompanies seasonal molting and broodiness in a variety of avian species (Berry, 2003; Webster, 2003). Accordingly, the responses of hens to diets containing 10, 20, and 40 mg T4/kg, to bracket the anticipated range of T4 needed to cause an effective molt, were determined.

[2] = system: Hy-Line W-36 White Leghorn hens; remark: listed apart in the source
Source text: Experiment 3. […] The photoperiod serves as the primary environmental signal that regulates reproductive function in many avian species. Increasing the photoperiod promotes maturation of the gonads and reproductive tract, whereas reducing the photoperiod causes the gonads and reproductive tract to regress and molting to occur.

`N[C@@H](Cc1cc(I)c(Oc2cc(I)c(O)c(I)c2)c(I)c1)C(=O)O` [L-thyroxine, 3,5,3′,5′-tetraiodo-L-thyronine] was tested, and the Hen-day egg production ([1]; 10 mg/kg of feed 10 d from day 5, day 20) was 17%, the Hen-day egg production ([1]; 20 mg/kg of feed 10 d from day 5, day 4) was 75% and the Hen-day egg production ([1]; 20 mg/kg of feed 10 d from day 5, day 6) was 58%. For the same compound, the Hen-day egg production ([1]; 20 mg/kg of feed 10 d from day 5, day 8) was 8%, the Hen-day egg production ([1]; 20 mg/kg of feed 10 d from day 5, day 10) was 8% and the Hen-day egg production ([1]; 20 mg/kg of feed 10 d from day 5, day 12) was 0%. The Hen-day egg production ([1]; 20 mg/kg of feed 10 d from day 5, day 14) was 0%, the Hen-day egg production ([1]; 20 mg/kg of feed 10 d from day 5, day 16) was 0% and the Hen-day egg production ([1]; 20 mg/kg of feed 10 d from day 5, day 18) was 8%. For the same compound, the Hen-day egg production ([1]; 20 mg/kg of feed 10 d from day 5, day 20) was 8%, the Hen-day egg production ([1]; 20 mg/kg of feed 10 d from day 5, day 22) was 17% and the Hen-day egg production ([1]; 20 mg/kg of feed 10 d from day 5, day 24) was 17%. It also gave a Hen-day egg production ([1]; 20 mg/kg of feed 10 d from day 5, day 26) of 17%, a Hen-day egg production ([1]; 20 mg/kg of feed 10 d from day 5, day 28) of 33% and a Hen-day egg production ([1]; 20 mg/kg of feed 10 d from day 5, day 30) of 25%. For the same compound, the Hen-day egg production ([1]; 40 mg/kg of feed 10 d from day 5, day 4) was 67%, the Hen-day egg production ([1]; 40 mg/kg of feed 10 d from day 5, day 6) was 33% and the Hen-day egg production ([1]; 40 mg/kg of feed 10 d from day 5, day 8) was 8%. For the same compound, the Hen-day egg production ([1]; 40 mg/kg of feed 10 d from day 5, day 10) was 8%, the Hen-day egg production ([1]; 40 mg/kg of feed 10 d from day 5, day 12) was 0% and the Hen-day egg production ([1]; 40 mg/kg of feed 10 d from day 5, day 14) was 0%. It also gave a Hen-day egg production ([1]; 40 mg/kg of feed 10 d from day 5, day 16) of 0%, a Hen-day egg production ([1]; 40 mg/kg of feed 10 d from day 5, day 18) of 0% and a Hen-day egg production ([1]; 40 mg/kg of feed 10 d from day 5, day 20) of 0%. For the same compound, the Hen-day egg production ([1]; 40 mg/kg of feed 10 d from day 5, day 22) was 0%, the Hen-day egg production ([1]; 40 mg/kg of feed 10 d from day 5, day 24) was 0% and the Hen-day egg production ([1]; 40 mg/kg of feed 10 d from day 5, day 26) was 0%. For the same compound, the Hen-day egg production ([1]; 40 mg/kg of feed 10 d from day 5, day 28) was 0%, the Hen-day egg production ([1]; 40 mg/kg of feed 10 d from day 5, day 30) was 0% and the Hen-day egg production ([2]; 20 mg/kg of feed 12 d from day 13, 8 hr light, day 12) was 93.8%. It also gave a Hen-day egg production ([2]; 20 mg/kg of feed 12 d from day 13, 8 hr light, day 14) of 54.2%, a Hen-day egg production ([2]; 20 mg/kg of feed 12 d from day 13, 8 hr light, day 16) of 35.4% and a Hen-day egg production ([2]; 20 mg/kg of feed 12 d from day 13, 8 hr light, day 18) of 29.2%. The Hen-day egg production ([2]; 20 mg/kg of feed 12 d from day 13, 8 hr light, day 20) was 18.8%, the Hen-day egg production ([2]; 20 mg/kg of feed 12 d from day 13, 8 hr light, day 22) was 0.0% and the Hen-day egg production ([2]; 20 mg/kg of feed 12 d from day 13, 8 hr light, day 24) was 0.0%. The Hen-day egg production ([2]; 20 mg/kg of feed 12 d from day 13, 8 hr light, day 26) was 0.0%, the Hen-day egg production ([2]; 20 mg/kg of feed 12 d from day 13, 8 hr light, day 28) was 10.4% and the Hen-day egg production ([2]; 20 mg/kg of feed 12 d from day 13, 8 hr light, day 30) was 6.3%. It also gave a Hen-day egg production ([2]; 20 mg/kg of feed 12 d from day 13, 8 hr light, day 32) of 16.7%, a Hen-day egg production ([2]; 20 mg/kg of feed 12 d from day 13, 8 hr light, day 34) of 8.3% and a Hen-day egg production ([2]; 20 mg/kg of feed 12 d from day 13, 17 hr light, day 12) of 91.7%. The Hen-day egg production ([2]; 20 mg/kg of feed 12 d from day 13, 17 hr light, day 14) was 58.3%, the Hen-day egg production ([2]; 20 mg/kg of feed 12 d from day 13, 17 hr light, day 16) was 35.4% and the Hen-day egg production ([2]; 20 mg/kg of feed 12 d from day 13, 17 hr light, day 18) was 31.3%. The Hen-day egg production ([2]; 20 mg/kg of feed 12 d from day 13, 17 hr light, day 20) was 14.6%, the Hen-day egg production ([2]; 20 mg/kg of feed 12 d from day 13, 17 hr light, day 22) was 27.1% and the Hen-day egg production ([2]; 20 mg/kg of feed 12 d from day 13, 17 hr light, day 24) was 4.2%. For the same compound, the Hen-day egg production ([2]; 20 mg/kg of feed 12 d from day 13, 17 hr light, day 26) was 18.8%, the Hen-day egg production ([2]; 20 mg/kg of feed 12 d from day 13, 17 hr light, day 28) was 0.0% and the Hen-day egg production ([2]; 20 mg/kg of feed 12 d from day 13, 17 hr light, day 30) was 29.2%. The Hen-day egg production ([2]; 20 mg/kg of feed 12 d from day 13, 17 hr light, day 32) was 41.7%, the Hen-day egg production ([2]; 20 mg/kg of feed 12 d from day 13, 17 hr light, day 34) was 54.2% and the Hen-day egg production ([2]; 40 mg/kg of feed 12 d from day 13, 8 hr light, day 12) was 83.3%. It also gave a Hen-day egg production ([2]; 40 mg/kg of feed 12 d from day 13, 8 hr light, day 14) of 66.7%, a Hen-day egg production ([2]; 40 mg/kg of feed 12 d from day 13, 8 hr light, day 16) of 16.7% and a Hen-day egg production ([2]; 40 mg/kg of feed 12 d from day 13, 8 hr light, day 18) of 8.3%. For the same compound, the Hen-day egg production ([2]; 40 mg/kg of feed 12 d from day 13, 8 hr light, day 20) was 12.5%, the Hen-day egg production ([2]; 40 mg/kg of feed 12 d from day 13, 8 hr light, day 22) was 4.2% and the Hen-day egg production ([2]; 40 mg/kg of feed 12 d from day 13, 8 hr light, day 24) was 8.3%. The Hen-day egg production ([2]; 40 mg/kg of feed 12 d from day 13, 8 hr light, day 26) was 4.2%, the Hen-day egg production ([2]; 40 mg/kg of feed 12 d from day 13, 8 hr light, day 28) was 4.2% and the Hen-day egg production ([2]; 40 mg/kg of feed 12 d from day 13, 8 hr light, day 30) was 8.3%. The Hen-day egg production ([2]; 40 mg/kg of feed 12 d from day 13, 8 hr light, day 32) was 4.2%, the Hen-day egg production ([2]; 40 mg/kg of feed 12 d from day 13, 8 hr light, day 34) was 8.3% and the Hen-day egg production ([2]; 40 mg/kg of feed 12 d from day 13, 17 hr light, day 12) was 66.7%. For the same compound, the Hen-day egg production ([2]; 40 mg/kg of feed 12 d from day 13, 17 hr light, day 14) was 56.3%, the Hen-day egg production ([2]; 40 mg/kg of feed 12 d from day 13, 17 hr light, day 16) was 37.5% and the Hen-day egg production ([2]; 40 mg/kg of feed 12 d from day 13, 17 hr light, day 18) was 16.7%. For the same compound, the Hen-day egg production ([2]; 40 mg/kg of feed 12 d from day 13, 17 hr light, day 20) was 12.5%, the Hen-day egg production ([2]; 40 mg/kg of feed 12 d from day 13, 17 hr light, day 22) was 0.0% and the Hen-day egg production ([2]; 40 mg/kg of feed 12 d from day 13, 17 hr light, day 24) was 0.0%. The Hen-day egg production ([2]; 40 mg/kg of feed 12 d from day 13, 17 hr light, day 26) was 0.0%, the Hen-day egg production ([2]; 40 mg/kg of feed 12 d from day 13, 17 hr light, day 28) was 0.0% and the Hen-day egg production ([2]; 40 mg/kg of feed 12 d from day 13, 17 hr light, day 30) was 0.0%. The Hen-day egg production ([2]; 40 mg/kg of feed 12 d from day 13, 17 hr light, day 32) was 0.0% and the Hen-day egg production ([2]; 40 mg/kg of feed 12 d from day 13, 17 hr light, day 34) was 0.0%.
